Measured values from PubChem BioAssay AID248 (DTP/NCI, 2004).
The list shows only some results of the screen, not a fair sample: it is rich in T/C values a quarter to a half above the control, in often repeated tests (any T/C) and in doses without a T/C. Further doses and runs are listed elsewhere. T/C gives the treated animals as a percentage of the vehicle group. Some entries give survivors of the animals treated and no T/C: the source files T/C as zero there, which appears to mark a toxic dose or a test without result, not a measured value. Some survivor counts are full or nearly so, which does not show that the dose was tolerated: the source hardly ever lists a survival T/C far under the control, and the zero likely stands for such cases as well. Counts of survivors are from the toxicity check (mostly the fifth day) where no day follows; animals may have died later. Schedule codes are those of the source, read here as Q, the interval in days (D) or hours (H), X, the number of doses. Some entries were tested several times; the values are given in rising order. For survival time, this PubChem deposit counts one and a half times the control or more as active, and values a quarter to a half above the control carry no call in these data; other NCI protocols may use other cut-offs. Counts like (3×) stand for listed records that agree. Some schedules carry Z or #; the key to these is not given. Some T/C values carry the count of animals alive at the toxicity check (mostly the fifth day); where none is given, no animal had died by that day.

Test system: L1210 leukemia ip in BDF1 mice, survival T/C
Assay: NCI In Vivo Anticancer Drug Screen. Data for tumor model L1210 Leukemia (intraperitoneal) in B6D2F1 (BDF1) mice
Conditions: T/C endpoint: mean survival time, higher T/C = longer survival
[1] = dose: 100.0 mg/kg/injection, schedule: Q04DX002 (ip), vehicle: saline
[2] = dose: 200.0 mg/kg/injection, schedule: Q04DX002 (ip), vehicle: saline
[3] = dose: 400.0 mg/kg/injection, schedule: Q04DX002 (ip), vehicle: saline
[4] = dose: 400.0 mg/kg/injection, schedule: Q01DX001 (ip), vehicle: saline
[5] = dose: 200.0 mg/kg/injection, schedule: Q04DX003 (ip), vehicle: Klucel (hydroxypropylcellulose) (HPC)
[6] = dose: 400.0 mg/kg/injection, schedule: Q04DX003 (ip), vehicle: Klucel (hydroxypropylcellulose) (HPC)
[7] = dose: 100.0 mg/kg/injection, schedule: Q04DX003 (ip), vehicle: Klucel (hydroxypropylcellulose) (HPC)
[8] = dose: 300.0 mg/kg/injection, schedule: Q01DX001 (ip), vehicle: carboxymethylcellulose (CMC)
[9] = dose: 50.0 mg/kg/injection, schedule: Q01DX009 (ip), vehicle: saline
[10] = dose: 100.0 mg/kg/injection, schedule: Q01DX009 (ip), vehicle: saline
[11] = dose: 200.0 mg/kg/injection, schedule: Q01DX009 (ip), vehicle: saline
[12] = dose: 400.0 mg/kg/injection, schedule: Q01DX009 (ip), vehicle: saline

With CC(=O)Nc1nncs1 the T/C (dose: 124.0 mg/kg/injection, schedule: Q01DX015 (ip), vehicle: carboxymethylcellulose (CMC)) was 131 % of control [4 of 6 alive].

With CC1=C(Cl)CS(=O)(=O)C1 the survivor count (dose: 400.0 mg/kg/injection, schedule: Q01DX001 (ip), vehicle: saline with Tween-80) was 0 of 6.

For C[N+](C)(C)CCO, the T/C (dose: 50.0 mg/kg/injection, schedule: Q04DX003 (ip), vehicle: water, evaluated on day 5) was 99 and 101 % of control (2×), the T/C (dose: 50.0 mg/kg/injection, schedule: Q04DX003 (ip), vehicle: water, evaluated on day 60) was 100 and 105 % of control and the T/C (dose: 100.0 mg/kg/injection, schedule: Q04DX003 (ip), vehicle: water, evaluated on day 5) was 99 and 101 % of control (2×). For the same molecule, the T/C (dose: 100.0 mg/kg/injection, schedule: Q04DX003 (ip), vehicle: water, evaluated on day 60) was 98 and 102 % of control, the T/C (dose: 200.0 mg/kg/injection, schedule: Q04DX003 (ip), vehicle: water, evaluated on day 5) was 102 and 103 % of control (2×) and the T/C (dose: 200.0 mg/kg/injection, schedule: Q04DX003 (ip), vehicle: water, evaluated on day 60) was 96 [9 of 10 alive] and 100 % of control.

CCOP(=O)(OCC)ON=C(Cl)Cl was tested, and the survivor count (dose: 6.25 mg/kg/injection, schedule: Q04DX002 (ip), vehicle: saline) was 3 of 3, the survivor count (dose: 10.0 mg/kg/injection, schedule: Q01DX009 (ip), vehicle: Klucel (hydroxypropylcellulose) (HPC)) was 6 of 6 and the survivor count (dose: 12.5 mg/kg/injection, schedule: Q04DX002 (ip), vehicle: saline) was 0 of 3 and 3 of 3. For the same molecule, the survivor count (dose: 25.0 mg/kg/injection, schedule: Q04DX002 (ip), vehicle: saline) was 1 of 3, the survivor count (dose: 50.0 mg/kg/injection, schedule: Q04DX002 (ip), vehicle: saline) was 0 of 3 and the survivor count [1] was 0 of 3. For the same molecule, the survivor count [2] was 0 of 3 and the survivor count [3] was 1 of 3.

With NC(=O)c1ncn(C2OC(CO)C(O)C2O)c1N (stereo not drawn) the survivor count [4] was 2 of 4.

In the case of COc1ccc(C[n+]2cccc(NC(=O)COc3ccc(Cl)c(Cl)c3)c2)cc1, the survivor count [5] is reported as 2 of 6 and the survivor count [6] is reported as 0 of 6.

C[N+](C)(C)CCOC(=O)c1ccc(CCl)cc1 was tested, and the survivor count (dose: 200.0 mg/kg/injection, schedule: Q04DX002 (ip), vehicle: other) was 2 of 3 and the survivor count (dose: 400.0 mg/kg/injection, schedule: Q04DX002 (ip), vehicle: other) was 1 of 3.

For CC[P+](CC=C(C)C)(c1ccccc1)c1ccccc1, the survivor count (dose: 6.25 mg/kg/injection, schedule: Q04DX003 (ip), vehicle: Klucel (hydroxypropylcellulose) (HPC)) was 3 of 6, the survivor count (dose: 12.5 mg/kg/injection, schedule: Q04DX003 (ip), vehicle: Klucel (hydroxypropylcellulose) (HPC)) was 1 of 6 and the survivor count (dose: 25.0 mg/kg/injection, schedule: Q04DX003 (ip), vehicle: Klucel (hydroxypropylcellulose) (HPC)) was 0 of 6. The survivor count (dose: 50.0 mg/kg/injection, schedule: Q04DX003 (ip), vehicle: Klucel (hydroxypropylcellulose) (HPC)) was 0 of 6, the survivor count [7] was 0 of 6 and the survivor count [5] was 0 of 6. The survivor count [6] was 6 of 6.

CCCOc1ccc(C=Nc2ccc(C)cc2)cc1 was tested, and the survivor count (dose: 400.0 mg/kg/injection, schedule: Q01DX009 (ip), vehicle: Klucel (hydroxypropylcellulose) (HPC)) was 1 of 6.

In the case of Cc1ccc(C(=O)c2ccc(C)cc2)cc1, the T/C [3] is reported as 142 % of control.

In the case of Cc1ccc(CN2C(=O)C=CC2=O)cc1, the survivor count (dose: 50.0 mg/kg/injection, schedule: Q04DX002 (ip), vehicle: Klucel (hydroxypropylcellulose) (HPC)) is reported as 3 of 3, the survivor count (dose: 100.0 mg/kg/injection, schedule: Q04DX002 (ip), vehicle: Klucel (hydroxypropylcellulose) (HPC)) is reported as 0 of 3 and the survivor count (dose: 200.0 mg/kg/injection, schedule: Q04DX002 (ip), vehicle: Klucel (hydroxypropylcellulose) (HPC)) is reported as 0 of 3. The survivor count (dose: 400.0 mg/kg/injection, schedule: Q04DX002 (ip), vehicle: Klucel (hydroxypropylcellulose) (HPC)) was 0 of 3.

For O=S1(=O)CC2C3C=CC(O3)C21 (stereo not drawn), the survivor count [8] was 0 of 6.

For CS(=O)(=O)OCC(O)C(O)COS(C)(=O)=O (stereo not drawn), the T/C [9] was 97, 100, 113, 119 % of control, the T/C [10] was 100, 107, 113, 143 % of control and the T/C [11] was 105, 108, 111, 182 % of control. The T/C [12] was 106, 108, 112, 113 % of control, the T/C (dose: 400.0 mg/kg/injection, schedule: Q01DX010 (ip), vehicle: saline) was 125 % of control and the T/C (dose: 1000.0 mg/kg/injection, schedule: Q01DX Z (ip), vehicle: carboxymethylcellulose (CMC)) was 132 % of control.

With C=CCOCC(O)CN1CCC(C)CC1 (stereo not drawn) the survivor count [7] was 3 of 6, the survivor count [5] was 0 of 6 and the survivor count [6] was 0 of 6.

For [Cl][Pt+2][Cl].[NH-]C(CCCN)C(=O)O.[NH-]C(CCCN)C(=O)O (stereo not drawn), the survivor count (dose: 400.0 mg/kg/injection, schedule: Q04DX003 (ip), vehicle: saline with Tween-80) was 0 of 6.

C=C1C(=O)OC2C1C(OC(=O)/C(C)=C/COC(C)=O)CC1(CO1)C1C(O)C=C(C)C21 (stereo not drawn) was tested, and the survivor count (dose: 100.0 mg/kg/injection, schedule: Q01DX009 (ip), vehicle: alcohol) was 1 of 6, the survivor count (dose: 200.0 mg/kg/injection, schedule: Q01DX009 (ip), vehicle: alcohol) was 0 of 6 and the survivor count (dose: 400.0 mg/kg/injection, schedule: Q01DX009 (ip), vehicle: alcohol) was 0 of 6.

In the case of CCCCCCCCC(=O)N1CC1, the survivor count [6] is reported as 6 of 6.

For Nc1ccn(CC(=O)c2ccco2)c(=O)n1, the survivor count [11] was 2 of 6, the survivor count [12] was 0 of 6 and the survivor count (dose: 400.0 mg/kg/injection, schedule: Q04DX003 (ip), vehicle: saline) was 3 of 6.

In the case of CC(C)CC(C)NCC(C)O (stereo not drawn), the survivor count (dose: 300.0 mg/kg/injection, schedule: Q01DX001 (ip), vehicle: acid diluted with saline) is reported as 0 of 6.

With CC(Br)C(=O)NC(Cc1ccccc1)C(=O)O (stereo not drawn) the survivor count (dose: 100.0 mg/kg/injection, schedule: Q04DX003 (ip), vehicle: other) was 6 of 6.

With COC(=O)C(=O)c1c(-c2ccc[n+](Cc3ccccc3)c2)[nH]c2ccccc12 the survivor count (dose: 300.0 mg/kg/injection, schedule: Q01DX001 (ip), vehicle: saline) was 0 of 6.

With CCC[As](=O)(O)CC(C)C the survivor count (dose: 6.25 mg/kg/injection, schedule: Q01DX009 (ip), vehicle: saline) was 1 of 3, the survivor count (dose: 25.0 mg/kg/injection, schedule: Q01DX009 (ip), vehicle: saline) was 1 of 3 and 2 of 6 and the survivor count (dose: 50.0 mg/kg/injection, schedule: Q01DX001 (ip), vehicle: saline) was 3 of 6. The survivor count [9] was 0 of 3 and 1 of 6, the survivor count (dose: 100.0 mg/kg/injection, schedule: Q01DX001 (ip), vehicle: saline) was 3 of 6 and the survivor count [10] was 0 of 3 and 0 of 6. The survivor count [1] was 1 of 6, the survivor count (dose: 100.0 mg/kg/injection, schedule: Q04DX003 (ip), vehicle: saline) was 4 of 6 and the survivor count (dose: 200.0 mg/kg/injection, schedule: Q01DX001 (ip), vehicle: saline) was 0 of 6. For the same molecule, the survivor count [11] was 0 of 6, the survivor count [2] was 0 of 6 and the survivor count [4] was 0 of 6. For the same molecule, the survivor count [12] was 0 of 6.

O=[N+]([O-])c1ccc(O)c(C2N(Cc3ccc(N(CCCl)CCCl)cc3)CCCN2Cc2ccc(N(CCCl)CCCl)cc2)c1 was tested, and the survivor count (dose: 400.0 mg/kg/injection, schedule: Q01DX001 (ip), vehicle: carboxymethylcellulose (CMC)) was 2 of 4.

For CC/C=C(\C)C1(CC)C(=O)NC(=S)NC1=O, the survivor count (dose: 150.0 mg/kg/injection, schedule: Q01DX001 (ip), vehicle: carboxymethylcellulose (CMC)) was 1 of 6 and the survivor count [8] was 0 of 6.

For CN(C)CCCNC1=C(Cl)C(=O)C(NCCCN(C)C)=C(Cl)C1=O, the survivor count (dose: 200.0 mg/kg/injection, schedule: Q04DX003 (ip), vehicle: acetone) was 6 of 6 and the survivor count (dose: 400.0 mg/kg/injection, schedule: Q04DX003 (ip), vehicle: acetone) was 0 of 6.
